From PubChem BioAssay AID504847 (National Center for Advancing Translational Sciences (NCATS), 2011)
“And” between values parts separate entries of the source, which are not always exact repeats. Identical values can stand only once. About 3,700 (0.93%) of roughly 400,000 compounds were called active. This list was built around the results that the source calls inconclusive (neither active nor inactive); the mix of calls is not that of the screen. Calls come from the whole dose curve; as a rule, active = well fitted inhibition curve with a large enough effect; inconclusive = small, poorly fitted or top-dose-only effect, or another doubt; inactive = no such curve, though single readings can be large or run the other way. Potencies of inconclusive entries are doubtful fits and often do not repeat.

Chains of the proteins cited; added tags and fusions are not shown. Lines headed by an entry give the natural chain unless they say otherwise; changes in a name come on top.
UniProt P11473: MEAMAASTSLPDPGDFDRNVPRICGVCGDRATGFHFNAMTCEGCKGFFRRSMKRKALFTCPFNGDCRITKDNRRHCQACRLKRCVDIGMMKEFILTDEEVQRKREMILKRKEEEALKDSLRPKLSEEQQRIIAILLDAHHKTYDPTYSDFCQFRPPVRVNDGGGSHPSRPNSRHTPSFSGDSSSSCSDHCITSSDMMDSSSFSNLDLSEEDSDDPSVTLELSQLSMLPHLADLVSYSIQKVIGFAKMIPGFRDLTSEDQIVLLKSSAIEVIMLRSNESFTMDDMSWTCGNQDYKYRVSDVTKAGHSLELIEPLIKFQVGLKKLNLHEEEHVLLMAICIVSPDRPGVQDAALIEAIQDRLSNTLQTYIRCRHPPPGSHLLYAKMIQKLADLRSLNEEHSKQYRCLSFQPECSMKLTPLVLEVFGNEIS

Target: Vitamin D3 receptor (Homo sapiens) (UniProt P11473)
Assay: Inhibitors of the vitamin D receptor (VDR): qHTS
Details: VDR-SRC2-3 peptide fluorescence polarization, 2 h; max response, negative = inhibition: active compounds read low
In short: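 Reagent solutions, kept cold and dark, are dispensed first; compounds are then pinned in at 23 nl, plates briefly spun, and incubated 2 h at ambient temperature. Inhibition of VDR–SRC2-3 peptide binding is read by fluorescence polarization.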
% is set by controls: 0 for no effect and ±100 for the full control effect; potency is the fitted concentration of half-maximal effect.

Potency, inconclusive:
COC(=O)C1C=CC(OC2OC(COC(C)=O)C(OC(C)=O)C(OC(C)=O)C2OC(C)=O)n2c(=O)n(-c3ccccc3)c(=O)n21 (stereo not drawn) 89.1 µM [inhibitor, single point], COc1ccccc1-c1nnc(SCC(=O)NC2CCCCC2)o1 89.1 µM [inhibitor, single point], CCOC(=O)C1=C(c2ccc(OC)cc2)OC(N)=C(C#N)C1c1cccnc1 (stereo not drawn) 89.1 µM [inhibitor, single point], COc1ccc(-n2c(Cc3cccn3C)nnc2SCC(=O)Nc2ccc(F)cc2)cc1 7.08 µM [inhibitor, full curve], O=C1CC(c2ccccc2)Sc2nc(-c3ccc(F)cc3)nn21 (stereo not drawn) 31.6 µM [inhibitor, partial curve, poor fit], COc1cc(C(=S)N2CCN(c3ccccc3Cl)CC2)cc(O)c1O 89.1 µM [inhibitor, single point], CCN(c1ccccc1)c1cc2ccccc2c(=O)[nH]1 56.2 µM [inhibitor, partial curve, poor fit], Cc1cc(=O)c2c(o1)C(=O)c1occc1C2=O 89.1 µM [inhibitor, single point], O=C(CSc1ccc(-c2ccco2)nn1)c1cccc([N+](=O)[O-])c1 89.1 µM [inhibitor, single point], Cc1cc(Cl)ccc1NNC(=O)c1snnc1C 89.1 µM [inhibitor, single point], Cc1ccc(NC(=S)Nc2cccc3cnccc23)cc1C 89.1 µM [inhibitor, single point], Cn1c(N=NC(=O)c2ccccc2)c(O)c2ccccc21 70.8 µM [inhibitor, partial curve, poor fit], COc1cc(Cl)c(C)cc1NC(=O)c1ccc2c(SCC(=O)O)c3c(nc2c1)CCCC3 28.2 µM [inhibitor, full curve, poor fit], O=C(c1ccc(NC(=O)C(c2ccccc2)c2ccccc2)cc1)c1ccc(C(=O)O)c(C(=O)O)c1 50.1 µM [inhibitor, partial curve, poor fit], CCNc1nc(C#N)nc(Nc2ccccc2)n1 70.8 µM [inhibitor, partial curve, poor fit], O=C(Nc1ccc2oc(-c3cccnc3)nc2c1)c1ccc(-c2ccc(OC(F)(F)F)cc2)o1 79.4 µM [inhibitor, single point], COc1ccccc1NS(=O)(=O)c1cc(NC(=O)COc2ccccc2F)ccc1N1CCOCC1 89.1 µM [inhibitor, single point], C=CC1=C(C)/C(=C/c2[nH]c(Cc3[nH]c(/C=C4\NC(=O)C(C)=C4C=C)c(C)c3CCC(=O)O)c(CCC(=O)O)c2C)NC1=O 22.4 µM [inhibitor, full curve], COc1cccc(-c2cncnc2NCCc2c[nH]c3ccc(OC)cc23)c1 56.2 µM [inhibitor, partial curve, poor fit], CCCCN(C(=O)c1cc(S(=O)(=O)N2CCCCC2)ccc1Cl)c1c(N)n(CC(C)C)c(=O)[nH]c1=O 79.4 µM [inhibitor, single point], CCCCn1nnc(NC(=O)c2ccco2)n1 100 µM [inhibitor, single point], CCCn1c(SCc2ccccc2)nc2c1c(=O)[nH]c(=O)n2C 50.1 µM [inhibitor, partial curve, poor fit], CCOC(=O)c1c(-c2ccccc2)csc1NC(=O)c1cc(-c2ccc(F)cc2)on1 89.1 µM [inhibitor, partial curve, poor fit], COc1ccc(/C(N)=N/OC(=O)CCCN2C(=O)c3ccccc3C2=O)cc1OC 89.1 µM [inhibitor, single point], CCCCC(=O)NC(c1ccc(C(C)C)cc1)c1ccc2cccnc2c1O (stereo not drawn) 63.1 µM [inhibitor, partial curve, poor fit], C=C(C)C(=O)OCC(C)C 100 µM [inhibitor, partial curve, poor fit], COc1ccc(NC(=O)CSc2ncnc3c2nnn3-c2ccc(F)cc2)c(OC)c1 3.55 µM [inhibitor, partial curve, poor fit], Cc1ccc(NC(=O)Cn2cc(S(=O)(=O)c3ccc(F)cc3)c(=O)c3cc(F)ccc32)cc1 100 µM [inhibitor, partial curve, poor fit], CCOC(=O)C1CCCN(c2nc3c(S(=O)(=O)c4ccc(C)c(C)c4)nnn3c3ccc(Cl)cc23)C1 (stereo not drawn) 70.8 µM [inhibitor, single point], CCOC(=O)C1=C(C)Nc2ccccc2S1 89.1 µM [inhibitor, partial curve, poor fit], COC(=O)COc1ccc(C2Nc3c(Cl)ccc(C(=O)O)c3C3C=CCC32)cc1 (stereo not drawn) 35.5 µM [inhibitor, single point], Cc1ccc2c(c1Br)/C(=N/N1C(=O)c3ccccc3C1=O)C(=O)N2 50.1 µM [inhibitor, partial curve, poor fit], CCCC1(c2ccccc2)NC(=O)N(C/C=C/Cl)C1=O (stereo not drawn) 56.2 µM [inhibitor, partial curve, poor fit], O=S(=O)(CCc1ccccc1)c1nnnn1-c1ccc(F)cc1Br 44.7 µM [inhibitor, partial curve], Cc1cccc(-n2nnnc2SCC(=O)Nc2cccc(S(N)(=O)=O)c2)c1 112 µM [inhibitor, partial curve, poor fit], Nc1cnn(Cc2ccccc2F)c1 100 µM [inhibitor, single point]

Potency, active:
CCCCOc1ccc(C(=O)CCN2CCCCC2)cc1 3.98 µM and 4.47 µM, CCC(=O)OCCNc1cc(Sc2nccn2C)c2nonc2c1[N+](=O)[O-] 31.6 µM, CCC(CC)NC(=O)/C=C/c1ccccc1Cl 50.1 µM, Cc1[nH][nH]c(=O)c1C(c1ccc(-c2ccc(Cl)c(Cl)c2)o1)c1c(C)[nH][nH]c1=O 79.4 µM, Nn1c(SCC(=O)Nc2cccnc2Cl)nnc1-c1ccccc1 79.4 µM, CC(C)OC(=O)c1cn(-c2ccccc2)nc1-c1ccco1 79.4 µM, Cc1[nH]n(-c2ncc(-c3ccccc3)s2)c(=O)c1C(c1ccc(Cl)cc1)C(C#N)C#N (stereo not drawn) 35.5 µM, CCCc1c(OCCCOc2ccc(OCC(=O)O)cc2)ccc(CC=O)c1O 35.5 µM, Cc1ccc(C(C[N+](=O)[O-])c2c(N)n(C)c(=O)n(C)c2=O)cc1 (stereo not drawn) 79.4 µM, Cc1ccc2c(c1)c1ccc3c(c1n2C)C(=O)C=CC3=O 50.1 µM

Max response, negative = inhibition, inactive:
CN(CCc1ccccc1)C(=O)c1ccc(NC(=O)Cc2ccc(NC(=O)C3CCN(C(=O)c4ccccc4)CC3)cc2)cc1 -21%, COc1ccc(-c2nc(N)ncc2-c2ccccc2OC)c(O)c1 4.81%, COc1cccc(N2CC(NC(=O)c3ccc4c(c3)OCO4)CC2=O)c1 (stereo not drawn) -6.93%, COC(=O)C1=C(C)N(c2cc(Cl)cc(Cl)c2)C(=O)C1 2.11%, COc1ccc(C(=O)OCC(=O)NC(Cc2ccccc2)C(C)=O)cc1S(=O)(=O)N1CCCC1 (stereo not drawn) -6.28%, CCNC(=O)c1ccc2nc(-c3ccccc3)c(-c3ccccc3)nc2c1 1.95%, Cc1csc(=O)n1CC(=O)Nc1ccc(Cl)cc1F 3.62%, Cc1ccc(S(=O)(=O)N2CCCCC2)cc1NC(=O)Cn1cnnn1 -8.25%, COc1cc(Cl)c(C)cc1NC(=O)c1ccc2c(SCC(=O)O)c3c(nc2c1)CCCC3 -16.4%, C[C@H](NC(=O)c1nc[nH]c1C(=O)N[C@@H](Cc1ccccc1)C(=O)OC(C)(C)C)C(=O)OCc1ccccc1 -11.1%, CC(C)CCN1C(=O)c2cccc3c(N)ccc(c23)C1=O -5.8%, Cc1ccc(-n2c(C)cc(/C=N/NC(N)=S)c2C)cc1 -18.2%, Cc1ccc(-n2nc3cc(C)c(NC(=S)NC(=O)/C=C/c4ccco4)cc3n2)cc1 -19.3%, COc1ccc(N2CC(NC(=O)c3ccc4c(c3)OCO4)CC2=O)cc1 (stereo not drawn) 4.03%, CCOc1ccccc1C(=O)Nc1nc2c(s1)CC(C)CC2 (stereo not drawn) 10%, COc1cc2c(cc1NC(=O)c1cccc(S(=O)(=O)N(C)C)c1)oc1ccccc12 4.04%, CCOC(=O)c1cccc(NC(=O)CCc2nnc3ccc(N4CCCCC4)nn23)c1 -3.34%, CNc1ccc(N=Nc2cccc3ncccc23)cc1 -10.3%, COc1ccc(-c2nc(CS(=O)CC(=O)NCc3ccccc3OC)c(C)o2)cc1 (stereo not drawn) -2.36%, CN(C)c1nc(N)c2nccnc2n1 -10.2%, C=CCn1c(C)cc(/C([O-])=C(/C(=S)Nc2ccc(OC(F)F)cc2)[n+]2ccc(N(C)C)cc2)c1C -3.51%, CC(=O)c1ccc(NC2c3ncccc3C(=O)N2Cc2ccc(F)cc2)cc1 (stereo not drawn) -6.71%
